In the supplement of paper PMC10849652:
The list shows a part of the results.

Sequences of proteins named here, by UniProt entry; tags and fusion partners are left off. A change or cut given only in a name is not applied to a line headed by its entry.
UniProt Q13042, whole entry, looked up: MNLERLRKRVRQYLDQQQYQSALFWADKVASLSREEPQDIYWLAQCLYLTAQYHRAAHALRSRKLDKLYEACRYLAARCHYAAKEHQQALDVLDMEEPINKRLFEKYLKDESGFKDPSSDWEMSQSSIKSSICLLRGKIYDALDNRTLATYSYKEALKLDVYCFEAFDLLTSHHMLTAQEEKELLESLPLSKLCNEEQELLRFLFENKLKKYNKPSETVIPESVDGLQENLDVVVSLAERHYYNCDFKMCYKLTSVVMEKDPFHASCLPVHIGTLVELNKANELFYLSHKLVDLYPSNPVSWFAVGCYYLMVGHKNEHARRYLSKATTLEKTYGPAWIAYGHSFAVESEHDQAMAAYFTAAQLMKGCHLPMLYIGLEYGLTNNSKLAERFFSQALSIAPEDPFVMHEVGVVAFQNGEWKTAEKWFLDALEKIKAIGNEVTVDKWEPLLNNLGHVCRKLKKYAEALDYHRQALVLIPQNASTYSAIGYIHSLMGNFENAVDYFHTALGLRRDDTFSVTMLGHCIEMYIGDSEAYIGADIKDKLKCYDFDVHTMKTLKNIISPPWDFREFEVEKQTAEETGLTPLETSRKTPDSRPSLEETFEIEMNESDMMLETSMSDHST
UniProt Q13191, whole entry, looked up: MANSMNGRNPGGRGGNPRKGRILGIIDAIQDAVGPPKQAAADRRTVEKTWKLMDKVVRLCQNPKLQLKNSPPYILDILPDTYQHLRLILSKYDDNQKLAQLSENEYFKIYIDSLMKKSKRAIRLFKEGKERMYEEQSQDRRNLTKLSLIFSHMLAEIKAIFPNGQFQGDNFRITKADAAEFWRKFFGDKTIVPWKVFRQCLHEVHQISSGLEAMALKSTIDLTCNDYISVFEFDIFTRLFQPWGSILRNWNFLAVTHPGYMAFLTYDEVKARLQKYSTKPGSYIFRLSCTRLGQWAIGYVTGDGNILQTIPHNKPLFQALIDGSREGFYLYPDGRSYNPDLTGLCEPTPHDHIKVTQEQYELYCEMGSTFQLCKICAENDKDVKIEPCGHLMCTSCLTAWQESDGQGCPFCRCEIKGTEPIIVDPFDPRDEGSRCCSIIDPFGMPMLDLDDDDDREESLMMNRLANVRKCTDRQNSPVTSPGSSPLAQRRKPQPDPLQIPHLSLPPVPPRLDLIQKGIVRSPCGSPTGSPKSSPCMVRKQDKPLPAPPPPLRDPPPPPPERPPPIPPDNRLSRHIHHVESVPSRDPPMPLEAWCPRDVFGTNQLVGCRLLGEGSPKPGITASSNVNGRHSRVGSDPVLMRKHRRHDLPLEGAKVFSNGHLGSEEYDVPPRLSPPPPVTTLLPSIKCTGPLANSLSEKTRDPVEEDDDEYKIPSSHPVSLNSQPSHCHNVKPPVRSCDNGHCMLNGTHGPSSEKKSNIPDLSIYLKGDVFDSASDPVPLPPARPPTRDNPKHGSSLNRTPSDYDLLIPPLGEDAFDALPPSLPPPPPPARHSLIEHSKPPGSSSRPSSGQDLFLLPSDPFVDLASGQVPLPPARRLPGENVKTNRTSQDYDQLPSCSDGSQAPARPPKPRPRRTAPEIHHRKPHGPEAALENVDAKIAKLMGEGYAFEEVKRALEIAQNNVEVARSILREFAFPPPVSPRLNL
UniProt O15446, whole entry, looked up: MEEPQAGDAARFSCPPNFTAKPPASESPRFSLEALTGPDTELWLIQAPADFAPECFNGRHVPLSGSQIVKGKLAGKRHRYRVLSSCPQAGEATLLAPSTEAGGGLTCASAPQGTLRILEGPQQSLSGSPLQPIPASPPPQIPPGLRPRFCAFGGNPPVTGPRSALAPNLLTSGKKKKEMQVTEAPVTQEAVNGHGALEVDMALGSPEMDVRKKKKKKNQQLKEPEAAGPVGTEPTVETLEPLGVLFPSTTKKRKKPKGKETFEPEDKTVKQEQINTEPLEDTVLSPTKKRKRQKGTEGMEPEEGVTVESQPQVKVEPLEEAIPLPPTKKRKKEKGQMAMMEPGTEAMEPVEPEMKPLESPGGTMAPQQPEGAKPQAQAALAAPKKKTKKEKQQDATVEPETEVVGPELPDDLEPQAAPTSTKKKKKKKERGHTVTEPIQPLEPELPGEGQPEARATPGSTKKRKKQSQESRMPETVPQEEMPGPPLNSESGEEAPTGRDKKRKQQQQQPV
UniProt Q9Y5K6, whole entry, looked up: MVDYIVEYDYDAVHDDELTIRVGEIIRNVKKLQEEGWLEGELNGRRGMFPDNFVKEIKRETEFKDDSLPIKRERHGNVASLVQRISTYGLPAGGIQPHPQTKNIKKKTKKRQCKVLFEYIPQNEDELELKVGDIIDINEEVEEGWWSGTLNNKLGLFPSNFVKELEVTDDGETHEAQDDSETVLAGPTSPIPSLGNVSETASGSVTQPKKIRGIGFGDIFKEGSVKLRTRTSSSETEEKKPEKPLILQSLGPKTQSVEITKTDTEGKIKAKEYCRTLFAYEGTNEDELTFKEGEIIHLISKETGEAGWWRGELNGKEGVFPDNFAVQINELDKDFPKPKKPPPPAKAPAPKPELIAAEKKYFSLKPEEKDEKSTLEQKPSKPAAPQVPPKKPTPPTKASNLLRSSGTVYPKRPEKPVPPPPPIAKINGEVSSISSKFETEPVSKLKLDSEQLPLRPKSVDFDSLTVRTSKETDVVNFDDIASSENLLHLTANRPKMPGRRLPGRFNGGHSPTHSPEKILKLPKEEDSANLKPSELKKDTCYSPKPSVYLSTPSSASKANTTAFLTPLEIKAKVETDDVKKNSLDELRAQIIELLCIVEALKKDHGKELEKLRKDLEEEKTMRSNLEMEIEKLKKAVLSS
UniProt O95067, whole entry, looked up: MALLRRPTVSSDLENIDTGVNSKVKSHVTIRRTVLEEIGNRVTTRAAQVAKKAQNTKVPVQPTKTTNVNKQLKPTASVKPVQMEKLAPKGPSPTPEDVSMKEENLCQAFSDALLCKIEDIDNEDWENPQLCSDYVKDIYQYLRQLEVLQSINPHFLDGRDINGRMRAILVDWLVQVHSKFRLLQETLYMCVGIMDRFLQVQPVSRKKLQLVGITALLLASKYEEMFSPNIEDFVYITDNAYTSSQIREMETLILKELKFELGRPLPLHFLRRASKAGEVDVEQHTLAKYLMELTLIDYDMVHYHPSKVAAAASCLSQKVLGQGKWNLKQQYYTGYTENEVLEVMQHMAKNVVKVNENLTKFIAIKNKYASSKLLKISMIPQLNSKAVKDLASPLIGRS
UniProt P60953, whole entry, looked up: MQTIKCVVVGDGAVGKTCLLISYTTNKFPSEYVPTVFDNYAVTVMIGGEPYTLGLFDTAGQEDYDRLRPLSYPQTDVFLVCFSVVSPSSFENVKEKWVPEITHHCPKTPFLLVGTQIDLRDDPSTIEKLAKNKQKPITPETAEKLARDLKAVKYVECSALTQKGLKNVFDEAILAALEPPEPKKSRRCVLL
UniProt Q5M9N0: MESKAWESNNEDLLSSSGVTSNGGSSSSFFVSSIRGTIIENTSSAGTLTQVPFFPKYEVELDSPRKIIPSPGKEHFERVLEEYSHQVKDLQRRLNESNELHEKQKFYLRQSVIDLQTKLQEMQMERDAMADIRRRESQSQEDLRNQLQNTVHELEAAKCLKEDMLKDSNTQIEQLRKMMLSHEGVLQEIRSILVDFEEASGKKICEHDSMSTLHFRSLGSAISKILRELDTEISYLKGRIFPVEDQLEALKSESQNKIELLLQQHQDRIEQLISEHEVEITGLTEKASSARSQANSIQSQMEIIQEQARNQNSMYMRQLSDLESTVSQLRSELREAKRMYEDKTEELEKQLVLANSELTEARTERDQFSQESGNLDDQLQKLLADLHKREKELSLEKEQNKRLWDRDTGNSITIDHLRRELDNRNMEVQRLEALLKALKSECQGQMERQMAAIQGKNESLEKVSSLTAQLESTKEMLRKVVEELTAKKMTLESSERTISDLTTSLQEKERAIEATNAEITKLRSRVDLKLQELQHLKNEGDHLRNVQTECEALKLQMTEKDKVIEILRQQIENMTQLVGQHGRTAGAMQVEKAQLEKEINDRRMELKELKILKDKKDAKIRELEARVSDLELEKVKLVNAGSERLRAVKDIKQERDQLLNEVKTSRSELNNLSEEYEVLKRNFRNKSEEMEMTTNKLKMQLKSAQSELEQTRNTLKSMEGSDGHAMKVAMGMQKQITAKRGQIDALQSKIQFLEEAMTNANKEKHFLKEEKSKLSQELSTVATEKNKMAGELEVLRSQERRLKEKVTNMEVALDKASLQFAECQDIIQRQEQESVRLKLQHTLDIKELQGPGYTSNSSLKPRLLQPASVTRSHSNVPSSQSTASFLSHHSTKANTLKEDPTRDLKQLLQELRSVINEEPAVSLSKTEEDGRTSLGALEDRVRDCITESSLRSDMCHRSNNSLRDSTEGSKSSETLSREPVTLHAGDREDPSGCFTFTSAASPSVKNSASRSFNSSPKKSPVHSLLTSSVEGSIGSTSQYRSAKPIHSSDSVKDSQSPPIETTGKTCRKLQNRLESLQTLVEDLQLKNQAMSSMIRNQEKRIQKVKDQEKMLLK
UniProt Q6P4E1: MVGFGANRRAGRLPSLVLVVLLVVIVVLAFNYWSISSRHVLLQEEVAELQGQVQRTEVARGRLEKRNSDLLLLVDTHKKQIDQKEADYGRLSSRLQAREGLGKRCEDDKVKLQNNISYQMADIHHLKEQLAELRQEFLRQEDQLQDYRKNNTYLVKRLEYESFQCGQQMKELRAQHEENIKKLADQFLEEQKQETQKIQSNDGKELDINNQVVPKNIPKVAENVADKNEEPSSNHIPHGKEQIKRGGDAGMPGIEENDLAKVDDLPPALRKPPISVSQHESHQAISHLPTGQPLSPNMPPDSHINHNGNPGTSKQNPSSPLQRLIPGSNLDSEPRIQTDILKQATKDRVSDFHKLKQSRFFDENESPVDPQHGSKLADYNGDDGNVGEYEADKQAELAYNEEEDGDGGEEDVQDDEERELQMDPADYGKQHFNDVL
UniProt Q96BQ5: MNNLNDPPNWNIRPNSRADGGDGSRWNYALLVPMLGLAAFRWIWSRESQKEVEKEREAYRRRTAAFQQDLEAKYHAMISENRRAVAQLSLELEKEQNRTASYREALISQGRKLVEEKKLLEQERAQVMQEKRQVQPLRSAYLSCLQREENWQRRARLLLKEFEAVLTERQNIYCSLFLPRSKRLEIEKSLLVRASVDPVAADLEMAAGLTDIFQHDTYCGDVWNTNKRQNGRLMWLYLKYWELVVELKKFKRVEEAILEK
UniProt Q86X55: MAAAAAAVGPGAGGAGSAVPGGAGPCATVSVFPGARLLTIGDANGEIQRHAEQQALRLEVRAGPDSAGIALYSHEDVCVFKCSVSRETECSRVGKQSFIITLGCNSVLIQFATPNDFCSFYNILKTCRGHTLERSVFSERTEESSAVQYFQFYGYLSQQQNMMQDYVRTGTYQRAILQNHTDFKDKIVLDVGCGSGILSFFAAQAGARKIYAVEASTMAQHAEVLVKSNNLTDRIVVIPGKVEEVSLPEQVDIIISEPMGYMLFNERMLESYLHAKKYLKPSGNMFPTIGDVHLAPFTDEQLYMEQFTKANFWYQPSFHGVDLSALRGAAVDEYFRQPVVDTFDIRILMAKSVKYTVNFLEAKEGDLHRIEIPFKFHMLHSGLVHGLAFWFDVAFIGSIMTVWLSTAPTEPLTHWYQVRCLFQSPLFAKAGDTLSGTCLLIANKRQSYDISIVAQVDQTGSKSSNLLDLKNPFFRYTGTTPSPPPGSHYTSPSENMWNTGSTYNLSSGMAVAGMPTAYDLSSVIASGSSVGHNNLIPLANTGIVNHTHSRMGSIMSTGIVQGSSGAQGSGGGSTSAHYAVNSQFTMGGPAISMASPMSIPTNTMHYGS
UniProt Q13951, whole entry, looked up: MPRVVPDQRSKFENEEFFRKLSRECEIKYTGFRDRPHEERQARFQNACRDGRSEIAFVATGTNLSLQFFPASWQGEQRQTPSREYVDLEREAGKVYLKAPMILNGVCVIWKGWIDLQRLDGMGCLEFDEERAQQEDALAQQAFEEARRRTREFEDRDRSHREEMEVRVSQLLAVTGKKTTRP
UniProt O14618: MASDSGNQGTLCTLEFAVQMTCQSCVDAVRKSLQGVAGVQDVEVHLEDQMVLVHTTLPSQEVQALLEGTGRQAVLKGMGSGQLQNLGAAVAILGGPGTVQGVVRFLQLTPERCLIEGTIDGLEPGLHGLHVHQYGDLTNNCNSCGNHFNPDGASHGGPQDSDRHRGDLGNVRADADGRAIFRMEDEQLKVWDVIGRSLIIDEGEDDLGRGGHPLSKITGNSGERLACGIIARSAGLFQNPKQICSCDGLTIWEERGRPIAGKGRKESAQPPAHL
UniProt Q96F63: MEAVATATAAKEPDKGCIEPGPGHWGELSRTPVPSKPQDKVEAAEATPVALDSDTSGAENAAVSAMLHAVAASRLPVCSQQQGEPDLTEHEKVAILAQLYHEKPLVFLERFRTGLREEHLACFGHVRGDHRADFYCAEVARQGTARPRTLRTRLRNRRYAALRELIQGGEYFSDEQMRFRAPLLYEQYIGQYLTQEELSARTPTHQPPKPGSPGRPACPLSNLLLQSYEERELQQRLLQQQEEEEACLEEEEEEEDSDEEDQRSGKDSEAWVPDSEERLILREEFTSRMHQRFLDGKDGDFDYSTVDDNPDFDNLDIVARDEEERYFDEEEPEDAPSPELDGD

Legend:
Experiment in all cases: log2 fold change, soluble protein after heating vs DMSO (PISA); higher = thermal stabilisation; K562 cells, 10 uM, 30 min; active = over 0.2 and 3.5 SD of the protein, either way, in both replicates (recomputed)
[1] = compound: CS(=O)(=O)c1ccc(-c2cnc(N)c(C(=O)Nc3ccccc3)n2)cc1
In short: (§1)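 K562 cells at 2×10^6 cells/mL were treated with 10 μM compound for 30 min. Aliquots were heated for 3 min across 48°C-58°C, pooled, and extracted in PBS with 0.5% NP-40 at 4°C; soluble protein was the supernatant after 21,000xg for 90 min. Soluble protein was quantified by TMTpro 16plex LC-MS/MS with channel sums equalised, and reported as log2 fold change in thermal stability against DMSO controls, with values from duplicates.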

crizotinib = compound: C[C@@H](Oc1cc(-c2cnn(C3CCNCC3)c2)cnc1N)c1c(Cl)ccc(F)c1Cl [crizotinib]
In short: as §1

[2] = compound: C[C@@H]1COCCN1C2=NC(=NC(=C2)C3(CC3)S(=O)(=O)C)C4=C5C=CNC5=CC=C4
In short: as §1

[3] = compound: C[C@H](C1=CC=C(C=C1)C(=O)NC2=C3C=CNC3=NC=C2)N
In short: as §1

duvelisib = compound: C[C@H](Nc1ncnc2nc[nH]c12)c1cc2cccc(Cl)c2c(=O)n1-c1ccccc1 [duvelisib]
In short: as §1

gandotinib = compound: Cc1cc(Nc2cc(CN3CCOCC3)c3nc(C)c(Cc4ccc(Cl)cc4F)n3n2)n[nH]1 [gandotinib]
In short: as §1

tozasertib = compound: Cc1cc(Nc2cc(N3CCN(C)CC3)nc(Sc3ccc(NC(=O)C4CC4)cc3)n2)n[nH]1 [tozasertib]
In short: as §1

[4] = compound: Cc1cc(SCc2sc(-c3ccc(C(F)(F)F)cc3)nc2C)ccc1OCC(=O)O
In short: as §1

doramapimod = compound: Cc1ccc(-n2nc(C(C)(C)C)cc2NC(=O)Nc2ccc(OCCN3CCOCC3)c3ccccc23)cc1 [doramapimod]
In short: as §1

ispinesib = compound: Cc1ccc(C(=O)N(CCCN)[C@@H](c2nc3cc(Cl)ccc3c(=O)n2Cc2ccccc2)C(C)C)cc1 [ispinesib]
In short: as §1

Measured: log2 fold change

CDC16 (UniProt Q13042)
inactive: [1] -0.017 | crizotinib 0.016 | [2] -0.021 | [3] 0.034 | duvelisib 0.023 | gandotinib 0.016 | tozasertib 0.064 | [4] 0.026 | doramapimod 0.033 | ispinesib 0.007

CCT7 (UniProt Q99832)
inactive: [1] -0.015 | crizotinib -0.004 | [2] 0.018 | [3] -0.025 | duvelisib -0.04 | gandotinib -0.018 | tozasertib 0.005 | [4] -0.011 | doramapimod -0.006 | ispinesib 0.008

CBLB (UniProt Q13191)
inactive: [1] -0.021 | crizotinib -0.025 | [2] -0.039 | [3] -0.053 | duvelisib 0.055 | gandotinib 0.003 | tozasertib 0.037 | [4] -0.022 | doramapimod -0.005 | ispinesib -0.04

CD3EAP isoform 2 (UniProt O15446)
inactive: [1] -0.029 | crizotinib -0.042 | [2] -0.241 | [3] 0.083 | duvelisib -0.052 | gandotinib 0.048 | tozasertib -0.005 | [4] -0.03 | doramapimod 0.124 | ispinesib -0.066

CD2AP (UniProt Q9Y5K6)
inactive: [1] 0.048 | crizotinib -0.061 | [2] 0.032 | [3] -0.081 | duvelisib 0.008 | gandotinib 0.028 | tozasertib -0.015 | [4] 0.005 | doramapimod 0 | ispinesib 0.024

CCNB2 (UniProt O95067)
inactive: [1] 0.01 | crizotinib -0.176 | [2] 0.005 | [3] -0.031 | duvelisib 0.049 | gandotinib 0.039 | tozasertib -0.079 | [4] 0.078 | doramapimod -0.018 | ispinesib -0.014

CDC42 (UniProt P60953)
inactive: [1] 0.025 | crizotinib 0.154 | [2] -0.072 | [3] -0.206 | duvelisib -0.062 | gandotinib 0.197 | tozasertib 0.016 | [4] 0.038 | doramapimod -0.129 | ispinesib 0.2

CCPG1 isoform 5 (UniProt Q9ULG6)
inactive: [1] 0.003 | crizotinib -0.072 | [2] -0.271 | [3] 0.249 | duvelisib -0.091 | gandotinib 0.026 | tozasertib 0.057 | [4] 0.029 | doramapimod 0.161 | ispinesib -0.012

CD97 (UniProt P48960)
inactive: [1] 0.07 | crizotinib 0.062 | [2] -0.013 | [3] -0.061 | duvelisib -0.058 | gandotinib 0.146 | tozasertib 0.012 | [4] -0.069 | doramapimod -0.039 | ispinesib -0.001

CCDC158 (UniProt Q5M9N0)
inactive: [1] 0.066 | crizotinib 0.128 | [2] -0.239 | [3] 0.023 | duvelisib -0.129 | gandotinib -0.013 | [4] 0.017 | doramapimod -0.082 | ispinesib 0.01

CCDC86 (UniProt Q9H6F5)
inactive: [1] -0.061 | crizotinib 0.058 | [2] -0.451 | [3] 0.368 | duvelisib -0.131 | gandotinib 0.345 | tozasertib 0.045 | [4] -0.013 | doramapimod 0.183 | ispinesib -0.168

CCT6A (UniProt P40227)
inactive: [1] -0.02 | crizotinib 0 | [2] 0.017 | [3] -0.009 | duvelisib -0.006 | gandotinib -0.011 | tozasertib -0.005 | [4] -0.003 | doramapimod -0.005 | ispinesib -0.004

Two consecutive entries out of the list so far, quoted:
CCNB2 (UniProt O95067)
inactive: [1] 0.01 | crizotinib -0.176 | [2] 0.005 | [3] -0.031 | duvelisib 0.049 | gandotinib 0.039 | tozasertib -0.079 | [4] 0.078 | doramapimod -0.018 | ispinesib -0.014

CDC42 (UniProt P60953)
inactive: [1] 0.025 | crizotinib 0.154 | [2] -0.072 | [3] -0.206 | duvelisib -0.062 | gandotinib 0.197 | tozasertib 0.016 | [4] 0.038 | doramapimod -0.129 | ispinesib 0.2

Further entries follow:

CASC4 (UniProt Q6P4E1)
inactive: [1] 0.026 | crizotinib 0.062 | [2] 0.024 | [3] 0.031 | duvelisib 0.049 | gandotinib -0.03 | tozasertib 0.017 | [4] -0.04 | doramapimod 0.016 | ispinesib 0.001

CCDC127 (UniProt Q96BQ5)
inactive: [1] -0.013 | crizotinib 0.053 | [2] 0.016 | [3] 0.078 | duvelisib 0.036 | gandotinib 0 | tozasertib -0.068 | [4] -0.013 | doramapimod 0.056 | ispinesib 0.083

CD320 (UniProt Q9NPF0)
inactive: [1] 0.003 | crizotinib 0.046 | [2] -0.078 | [3] -0.054 | duvelisib 0.015 | gandotinib -0.046 | tozasertib -0.034 | [4] 0.016 | doramapimod -0.007 | ispinesib 0.067

CCDC93 (UniProt Q567U6)
inactive: [1] 0.121 | crizotinib -0.164 | [2] 0.011 | [3] 0.134 | duvelisib 0.064 | gandotinib 0.042 | tozasertib 0 | [4] 0.072 | doramapimod 0.036 | ispinesib -0.135

CD99 (UniProt P14209)
inactive: [1] 0.14 | crizotinib 0.157 | [2] 0.124 | [3] -0.034 | gandotinib 0.059 | tozasertib -0.013 | doramapimod -0.003

CDC27 isoform 2 (UniProt P30260)
inactive: [1] 0.016 | crizotinib -0.017 | [2] -0.019 | [3] 0.047 | duvelisib -0.033 | gandotinib -0.002 | tozasertib 0.043 | [4] 0.056 | doramapimod 0.043 | ispinesib 0.015

CDC20 (UniProt Q12834)
inactive: [1] 0.017 | crizotinib 0.009 | [2] 0.039 | [3] -0.228 | duvelisib 0.014 | gandotinib 0.015 | tozasertib 0.023 | [4] 0.036 | doramapimod -0.074 | ispinesib -0.057

CARM1 (UniProt Q86X55)
inactive: [1] 0.01 | crizotinib 0.054 | [2] 0.041 | [3] -0.059 | duvelisib 0.049 | gandotinib -0.026 | tozasertib -0.019 | [4] 0 | doramapimod -0.044 | ispinesib -0.023

CCNYL1 (UniProt Q8N7R7)
inactive: [1] 0.077 | crizotinib -0.06 | [2] 0.069 | [3] 0.143 | duvelisib 0.072 | gandotinib 0.049 | [4] 0.162 | doramapimod -0.006

CBFB isoform 2 (UniProt Q13951)
inactive: [1] 0 | crizotinib 0.061 | [2] -0.069 | [3] -0.091 | duvelisib 0.047 | gandotinib 0.089 | tozasertib 0.092 | [4] 0.065 | doramapimod 0.002 | ispinesib 0.002

CCDC32 isoform 2 (UniProt Q9BV29)
inactive: [1] -0.054 | crizotinib -0.053 | [2] 0.014 | [3] -0.066 | duvelisib 0.064 | gandotinib -0.052 | tozasertib -0.015 | [4] -0.019 | doramapimod -0.007 | ispinesib 0.12

CD59 isoform 2 (UniProt P13987)
inactive: [1] 0.049 | crizotinib 0.273 | [2] -0.079 | [3] -0.131 | duvelisib -0.057 | gandotinib 0.001 | tozasertib 0.025 | [4] -0.045 | doramapimod -0.038 | ispinesib 0.186

CBX3 (UniProt Q13185)
inactive: [1] 0.036 | crizotinib 0.006 | [2] 0.02 | [3] -0.015 | duvelisib 0.026 | gandotinib -0.07 | tozasertib 0.013 | [4] 0.003 | doramapimod -0.06 | ispinesib 0.029

CDC42 isoform 1 (UniProt P60953)
inactive: [1] 0.028 | crizotinib 0.151 | [2] -0.022 | [3] -0.096 | duvelisib -0.021 | gandotinib -0.029 | tozasertib -0.014 | [4] -0.073 | doramapimod -0.03 | ispinesib 0.039

CDC37 (UniProt K7EL68)
inactive: [1] -0.002 | crizotinib 0.056 | [2] 0.032 | [3] 0.152 | duvelisib 0.165 | [4] -0.139 | doramapimod 0.052 | ispinesib 0.063

CCS (UniProt O14618)
inactive: [1] -0.003 | crizotinib -0.017 | [2] 0.143 | [3] -0.011 | duvelisib 0.026 | gandotinib -0.174 | tozasertib 0.042 | [4] 0.047 | doramapimod -0.004 | ispinesib -0.01

CC2D1A (UniProt Q6P1N0)
inactive: [1] 0.04 | crizotinib 0.043 | [2] -0.005 | [3] 0.024 | duvelisib 0.041 | gandotinib -0.034 | tozasertib -0.002 | [4] 0.114 | doramapimod 0.039 | ispinesib -0.002

CCDC97 (UniProt Q96F63)
inactive: [1] -0.039 | crizotinib -0.038 | [2] -0.017 | [3] 0.061 | duvelisib 0.034 | tozasertib -0.008 | [4] 0.056 | doramapimod -0.002 | ispinesib -0.041
